From paper PMC12499392

Protein sequences, listed by entry. Tags and fused reporters are not part of them. Residues count along the entry.
UniProt P38646, residues 47-679: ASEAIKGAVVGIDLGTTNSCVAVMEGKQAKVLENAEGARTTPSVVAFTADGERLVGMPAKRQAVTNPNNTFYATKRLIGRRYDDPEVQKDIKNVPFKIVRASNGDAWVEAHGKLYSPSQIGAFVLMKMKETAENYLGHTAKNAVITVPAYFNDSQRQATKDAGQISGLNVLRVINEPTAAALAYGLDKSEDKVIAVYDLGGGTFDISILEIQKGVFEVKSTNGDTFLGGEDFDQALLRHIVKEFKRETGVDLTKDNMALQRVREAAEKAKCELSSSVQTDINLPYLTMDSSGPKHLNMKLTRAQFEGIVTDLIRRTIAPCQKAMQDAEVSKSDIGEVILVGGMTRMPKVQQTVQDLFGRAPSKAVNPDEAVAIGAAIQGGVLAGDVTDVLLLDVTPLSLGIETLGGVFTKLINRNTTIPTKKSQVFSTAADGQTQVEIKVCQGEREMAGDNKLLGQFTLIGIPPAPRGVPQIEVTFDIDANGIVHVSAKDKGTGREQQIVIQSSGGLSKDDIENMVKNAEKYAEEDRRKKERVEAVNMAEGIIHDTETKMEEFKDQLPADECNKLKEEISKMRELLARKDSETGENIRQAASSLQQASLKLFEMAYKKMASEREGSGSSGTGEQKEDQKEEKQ
UniProt P46940: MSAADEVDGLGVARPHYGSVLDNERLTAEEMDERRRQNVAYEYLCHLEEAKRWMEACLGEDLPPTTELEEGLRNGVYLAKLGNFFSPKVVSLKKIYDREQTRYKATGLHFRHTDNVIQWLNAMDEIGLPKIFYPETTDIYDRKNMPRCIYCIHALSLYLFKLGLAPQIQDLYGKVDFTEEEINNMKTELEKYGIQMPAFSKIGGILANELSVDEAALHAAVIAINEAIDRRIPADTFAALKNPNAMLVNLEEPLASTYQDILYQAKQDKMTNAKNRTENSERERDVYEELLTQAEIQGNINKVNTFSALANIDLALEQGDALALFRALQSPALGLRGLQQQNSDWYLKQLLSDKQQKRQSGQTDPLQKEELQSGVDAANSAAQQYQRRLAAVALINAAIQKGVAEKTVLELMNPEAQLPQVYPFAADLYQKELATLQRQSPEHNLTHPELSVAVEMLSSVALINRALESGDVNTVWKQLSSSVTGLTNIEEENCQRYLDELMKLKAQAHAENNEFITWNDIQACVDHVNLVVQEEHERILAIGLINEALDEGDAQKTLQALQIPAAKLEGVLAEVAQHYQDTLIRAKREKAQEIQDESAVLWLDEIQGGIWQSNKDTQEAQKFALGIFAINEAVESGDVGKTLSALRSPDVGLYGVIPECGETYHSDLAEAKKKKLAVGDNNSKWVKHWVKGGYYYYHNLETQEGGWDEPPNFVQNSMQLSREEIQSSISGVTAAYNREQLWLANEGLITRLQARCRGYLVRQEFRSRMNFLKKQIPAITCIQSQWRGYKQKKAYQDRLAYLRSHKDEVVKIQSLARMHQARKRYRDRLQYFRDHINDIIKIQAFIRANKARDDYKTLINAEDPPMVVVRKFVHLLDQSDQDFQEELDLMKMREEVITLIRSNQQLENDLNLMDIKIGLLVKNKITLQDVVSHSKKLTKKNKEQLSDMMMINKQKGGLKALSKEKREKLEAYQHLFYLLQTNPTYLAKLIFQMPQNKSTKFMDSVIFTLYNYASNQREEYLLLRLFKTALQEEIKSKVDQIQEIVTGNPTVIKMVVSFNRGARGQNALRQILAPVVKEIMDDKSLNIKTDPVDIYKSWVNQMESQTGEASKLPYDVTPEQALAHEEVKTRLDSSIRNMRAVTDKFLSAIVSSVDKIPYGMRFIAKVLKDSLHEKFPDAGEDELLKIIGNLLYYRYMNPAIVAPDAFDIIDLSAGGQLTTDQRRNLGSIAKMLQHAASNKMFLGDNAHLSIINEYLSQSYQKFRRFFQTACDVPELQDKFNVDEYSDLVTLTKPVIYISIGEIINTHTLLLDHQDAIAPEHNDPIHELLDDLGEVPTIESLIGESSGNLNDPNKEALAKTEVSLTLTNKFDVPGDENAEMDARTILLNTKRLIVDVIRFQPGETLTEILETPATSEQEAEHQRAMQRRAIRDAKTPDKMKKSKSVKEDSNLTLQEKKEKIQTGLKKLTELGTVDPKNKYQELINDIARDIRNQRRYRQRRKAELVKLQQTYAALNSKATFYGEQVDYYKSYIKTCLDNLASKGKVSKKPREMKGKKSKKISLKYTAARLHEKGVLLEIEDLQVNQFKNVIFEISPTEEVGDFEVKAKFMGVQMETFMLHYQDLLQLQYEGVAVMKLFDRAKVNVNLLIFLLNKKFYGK
UniProt P07305: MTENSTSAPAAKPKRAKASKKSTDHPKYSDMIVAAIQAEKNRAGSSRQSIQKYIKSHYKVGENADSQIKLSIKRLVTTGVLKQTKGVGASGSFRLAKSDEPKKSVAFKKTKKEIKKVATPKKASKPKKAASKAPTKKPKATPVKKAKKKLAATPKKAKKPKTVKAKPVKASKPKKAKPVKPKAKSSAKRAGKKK
UniProt P05387: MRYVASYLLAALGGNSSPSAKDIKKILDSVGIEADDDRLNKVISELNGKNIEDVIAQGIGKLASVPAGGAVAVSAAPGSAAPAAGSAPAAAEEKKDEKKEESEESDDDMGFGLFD
UniProt P68871: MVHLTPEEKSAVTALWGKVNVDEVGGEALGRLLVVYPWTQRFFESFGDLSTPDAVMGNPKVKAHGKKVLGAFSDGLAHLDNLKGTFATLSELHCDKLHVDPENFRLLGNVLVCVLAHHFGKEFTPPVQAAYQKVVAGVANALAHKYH
UniProt Q00610: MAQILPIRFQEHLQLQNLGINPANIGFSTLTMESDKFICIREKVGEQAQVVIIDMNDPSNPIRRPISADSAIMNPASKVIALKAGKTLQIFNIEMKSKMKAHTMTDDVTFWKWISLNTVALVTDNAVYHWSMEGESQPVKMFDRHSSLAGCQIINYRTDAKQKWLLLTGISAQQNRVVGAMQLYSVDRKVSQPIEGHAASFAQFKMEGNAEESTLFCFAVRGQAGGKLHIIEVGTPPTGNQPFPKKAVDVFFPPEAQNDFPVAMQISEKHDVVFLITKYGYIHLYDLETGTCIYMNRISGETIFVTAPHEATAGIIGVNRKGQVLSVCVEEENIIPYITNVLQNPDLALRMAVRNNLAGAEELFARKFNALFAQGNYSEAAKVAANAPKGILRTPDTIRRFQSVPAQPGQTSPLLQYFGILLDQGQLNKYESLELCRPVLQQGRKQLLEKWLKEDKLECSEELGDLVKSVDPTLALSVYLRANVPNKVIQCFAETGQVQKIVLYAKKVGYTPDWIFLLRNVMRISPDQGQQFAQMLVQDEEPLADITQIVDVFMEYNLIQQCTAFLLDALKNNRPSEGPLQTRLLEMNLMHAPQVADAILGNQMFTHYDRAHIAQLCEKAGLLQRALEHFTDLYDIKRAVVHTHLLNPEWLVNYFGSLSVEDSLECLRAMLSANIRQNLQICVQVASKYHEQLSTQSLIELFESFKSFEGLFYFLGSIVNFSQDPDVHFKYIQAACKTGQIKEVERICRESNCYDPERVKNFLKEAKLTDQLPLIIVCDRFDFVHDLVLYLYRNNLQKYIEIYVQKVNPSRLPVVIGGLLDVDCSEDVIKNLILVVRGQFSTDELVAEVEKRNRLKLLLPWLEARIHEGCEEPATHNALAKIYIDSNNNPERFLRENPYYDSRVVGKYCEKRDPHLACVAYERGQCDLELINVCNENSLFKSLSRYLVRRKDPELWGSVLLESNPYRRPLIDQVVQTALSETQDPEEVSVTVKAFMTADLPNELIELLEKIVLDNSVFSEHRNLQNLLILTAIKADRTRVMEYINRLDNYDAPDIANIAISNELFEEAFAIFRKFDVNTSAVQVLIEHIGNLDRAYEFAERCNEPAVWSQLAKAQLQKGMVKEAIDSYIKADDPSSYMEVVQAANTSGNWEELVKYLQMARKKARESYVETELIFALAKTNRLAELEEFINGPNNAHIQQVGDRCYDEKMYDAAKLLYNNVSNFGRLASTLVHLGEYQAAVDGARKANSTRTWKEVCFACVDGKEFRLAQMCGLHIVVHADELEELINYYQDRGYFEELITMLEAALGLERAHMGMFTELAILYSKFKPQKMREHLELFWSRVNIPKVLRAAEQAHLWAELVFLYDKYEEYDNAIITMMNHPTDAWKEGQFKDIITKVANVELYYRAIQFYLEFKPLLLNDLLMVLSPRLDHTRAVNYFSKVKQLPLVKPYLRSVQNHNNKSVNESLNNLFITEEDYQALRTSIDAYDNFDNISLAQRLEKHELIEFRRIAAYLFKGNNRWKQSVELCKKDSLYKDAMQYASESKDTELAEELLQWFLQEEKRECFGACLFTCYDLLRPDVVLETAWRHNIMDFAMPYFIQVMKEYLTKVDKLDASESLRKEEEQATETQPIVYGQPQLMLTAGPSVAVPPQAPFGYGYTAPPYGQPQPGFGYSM

Target: mortalin (human (endogenous in OV90, A2780, SKOV3, OVCAR3 and fallopian tube cells)) (UniProt P38646)
Experiment: affinity purification with mass spectrometry; OV90, A2780, FT007 and FT032 cells treated with 10 x 10^-6 M SHetA2 or vehicle for 4 h; 500 ug lysate incubated overnight at 4 C with 10 ug D13H4 mortalin antibody coupled to agarose beads (Pierce Co-Immunoprecipitation Kit); LC-MS/MS; hits are proteins with less peak intensity in the precipitate after SHetA2

Substance	binding
IQGAP1 (from UniProt P46940 1-1657)	binds
H1F0 (from UniProt P07305 1-194)	binds
RPLP2 (from UniProt P05387 1-115)	binds
HBB (from UniProt P68871 1-147)	binds
PLEC (from UniProt Q15149 1-4684)	binds
VCP (from UniProt P55072 1-806)	binds
CLTC (from UniProt Q00610 1-1675)	binds

Results are given in words; binding and its absence hold for the method and conditions named. Binding seen in cells or lysates may run through a third protein. These calls come from enrichment with a bait or labelling near it, and not all partners need be listed.
